The list does not hold the whole screen: it is rich in T/C values a quarter to a half above the control, in often repeated tests (any T/C) and in doses without a T/C. Further doses and runs are listed elsewhere. T/C: endpoint of the treated group in % of that of the vehicle group. Some doses have a count of surviving animals in place of a T/C: the source holds a T/C of zero for them, seemingly a mark for toxic or unscored doses. Some doses without a T/C left all or most animals alive at the check, yet need not have been tolerated: the source hardly ever lists a survival T/C far under the control, and the zero likely stands for such cases as well. Counts of survivors are from the toxicity check (mostly the fifth day) where no day follows; animals may have died later. Schedule codes are those of the source, read here as Q, the interval in days (D) or hours (H), X, the number of doses. Some molecules as drawn cover several salts, stereoisomers or complexes of the source; a dose is that of the sample tested. Some entries hold several experiments; their values stand side by side, smallest first. Brackets with × say how often a value occurs here. For survival time, the PubChem record calls one and a half times the control and up active, and a quarter to a half above the control has no call in these data; cut-offs in other NCI protocols can differ. Some T/C values are followed by the survivors on the day toxicity was checked, most often the fifth; where none is given, no animal had died by that day.
Tested on: BDF1 mice, B16 melanoma ip, median survival T/C
Experiment: NCI In Vivo Anticancer Drug Screen. Data for tumor model B16 Melanoma (intraperitoneal) in B6D2F1 (BDF1) mice
Conditions: T/C endpoint: median survival time, higher T/C = longer survival
In short: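 Transplantable tumor model; survival or tumor size measured; reported as T/C, treated over vehicle control.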

[1] = dose: 100.0 mg/kg/injection, schedule: Q04DX003 (ip), vehicle: Klucel (hydroxypropylcellulose) (HPC)
[2] = dose: 200.0 mg/kg/injection, schedule: Q04DX003 (ip), vehicle: Klucel (hydroxypropylcellulose) (HPC)
[3] = dose: 200.0 mg/kg/injection, schedule: Q01DX009 (ip), vehicle: saline with Tween-80
[4] = dose: 100.0 mg/kg/injection, schedule: Q01DX009 (ip), vehicle: Klucel (hydroxypropylcellulose) (HPC)
[5] = dose: 200.0 mg/kg/injection, schedule: Q01DX009 (ip), vehicle: Klucel (hydroxypropylcellulose) (HPC)
[6] = dose: 400.0 mg/kg/injection, schedule: Q01DX009 (ip), vehicle: Klucel (hydroxypropylcellulose) (HPC)
[7] = dose: 400.0 mg/kg/injection, schedule: Q01DX009 (ip), vehicle: saline with Tween-80
[8] = dose: 4.0 mg/kg/injection, schedule: Q01DX009 (ip), vehicle: saline
[9] = dose: 8.0 mg/kg/injection, schedule: Q01DX009 (ip), vehicle: saline
[10] = dose: 100.0 mg/kg/injection, schedule: Q01DX009 (ip), vehicle: saline with Tween-80

With COC(=O)[CH](C[N+](=O)[O-])[Hg][Cl] (stereo unspecified) the survivor count (dose: 1.6 mg/kg/injection, schedule: Q01DX009 (ip), vehicle: saline with Tween-80) was 6 of 6, the survivor count (dose: 25.0 mg/kg/injection, schedule: Q01DX009 (ip), vehicle: saline) was 10 of 10 and the survivor count (dose: 50.0 mg/kg/injection, schedule: Q01DX009 (ip), vehicle: saline) was 8 of 10. The survivor count (dose: 50.0 mg/kg/injection, schedule: Q04DX003 (ip), vehicle: Klucel (hydroxypropylcellulose) (HPC)) was 10 of 10, the survivor count (dose: 100.0 mg/kg/injection, schedule: Q01DX009 (ip), vehicle: saline) was 6 of 10 and the survivor count [1] was 10 of 10. The survivor count [2] was 0 of 10 and the survivor count (dose: 400.0 mg/kg/injection, schedule: Q04DX003 (ip), vehicle: Klucel (hydroxypropylcellulose) (HPC)) was 0 of 10.

COc1cc(NS(C)(=O)=O)ccc1Nc1c2ccc(Cl)cc2nc2c(OC)cccc12 was tested, and the T/C (dose: 1.5 mg/kg/injection, schedule: Q01DX009 (ip), vehicle: saline with Tween-80) was 144 % of control, the T/C (dose: 2.25 mg/kg/injection, schedule: Q04DX003 (ip), vehicle: water) was 129 % of control and the T/C (dose: 4.5 mg/kg/injection, schedule: Q04DX003 (ip), vehicle: water) was 142 % of control. The survivor count (dose: 13.0 mg/kg/injection, schedule: Q01DX005 (iv), vehicle: water) was 10 of 10, the survivor count (dose: 18.0 mg/kg/injection, schedule: Q01DX009 (ip), vehicle: other) was 10 of 10 and the survivor count (dose: 18.0 mg/kg/injection, schedule: Q01DX009 (ip), vehicle: saline with Tween-80) was 10 of 10. For the same molecule, the survivor count (dose: 26.0 mg/kg/injection, schedule: Q01DX005 (iv), vehicle: water) was 6 of 10, the T/C (dose: 26.0 mg/kg/injection, schedule: Q04DX003 (iv), vehicle: water) was 130 % of control [9 of 10 alive] and the survivor count (dose: 36.0 mg/kg/injection, schedule: Q01DX009 (ip), vehicle: other) was 8 of 10. For the same molecule, the survivor count (dose: 72.0 mg/kg/injection, schedule: Q01DX009 (ip), vehicle: other) was 6 of 10 and the survivor count (dose: 72.0 mg/kg/injection, schedule: Q04DX003 (ip), vehicle: water) was 5 of 10.

NC(N)=N/N=C(/c1ccccc1)c1ccc(F)cc1 was tested, and the survivor count (dose: 160.0 mg/kg/injection, schedule: Q01DX009 (ip), vehicle: saline) was 1 of 6.

For C1CN1P1(N2CC2)=NP(N2CC2)(N2CC2)=NP(N2CC2)(N2CC2)=NP(N2CC2)(N2CC2)=N1, the survivor count (dose: 8.0 mg/kg/injection, schedule: Q02DX009 (ip), vehicle: saline) was 10 of 10.

With COc1ccc(C(=O)C(C)C(O)C(=O)O)c(O)c1C (stereo unspecified) the survivor count (dose: 200.0 mg/kg/injection, schedule: Q01DX009 (ip), vehicle: other) was 10 of 10 and the survivor count (dose: 400.0 mg/kg/injection, schedule: Q01DX009 (ip), vehicle: other) was 8 of 10.

With CC1(C)CC1(Br)Br the survivor count [3] was 10 of 10.

In the case of COc1ccc(C(C#N)N2CCOCC2)cc1 (stereo unspecified), the survivor count [4] is reported as 10 of 10, the survivor count [5] is reported as 1 of 10 and the survivor count [2] is reported as 7 of 10.

In the case of Nc1nc2c(ncn2C2OC(CO)C(O)C2O)c(=O)[nH]1 (stereo unspecified), the T/C (dose: 200.0 mg/kg/injection, schedule: Q01DX009 (ip), vehicle: suspension in saline) is reported as 125 % of control and the T/C (dose: 800.0 mg/kg/injection, schedule: Q01DX009 (ip), vehicle: suspension in saline) is reported as 131 % of control.

COc1ccc2c(c1OC(C)=O)-c1cc(O)cc3c1C(C2)N(C(=O)CN(CCCl)CCCl)CC3 (stereo unspecified) was tested, and the T/C (dose: 1.56 mg/kg/injection, schedule: Q01DX009 (ip), vehicle: saline with Tween-80) was 129 % of control, the T/C (dose: 12.5 mg/kg/injection, schedule: Q04DX003 (ip), vehicle: DMSO) was 134 and 141 % of control [9 of 10 alive] and the survivor count (dose: 25.0 mg/kg/injection, schedule: Q01DX009 (ip), vehicle: saline with Tween-80) was 10 of 10. The T/C (dose: 25.0 mg/kg/injection, schedule: Q04DX003 (ip), vehicle: DMSO) was 135 and 144 % of control, the T/C (dose: 50.0 mg/kg/injection, schedule: Q04DX003 (ip), vehicle: DMSO) was 136 % of control [9 of 10 alive] and the survivor count (dose: 100.0 mg/kg/injection, schedule: Q04DX003 (ip), vehicle: DMSO) was 9 of 10 and 10 of 10.

For CC(C)(C)OC(=O)N1CCCC1C(=O)O (stereo unspecified), the survivor count [4] was 10 of 10, the survivor count [5] was 10 of 10 and the survivor count [6] was 2 of 10.

For CCCCC(CC)COP(=O)(CC(CC)CCCC)OCC(CC)CCCC (stereo unspecified), the T/C (dose: 12.5 mg/kg/injection, schedule: Q04DX003 (ip), vehicle: saline) was 126 % of control.

With CCC1(c2ccccc2)SC(=O)NC1=O (stereo unspecified) the survivor count [3] was 8 of 10 and the survivor count [7] was 5 of 10.

For CC[C@H]1CN2CCc3cc(OC)c(OC)cc3[C@@H]2C[C@@H]1C[C@H]1NCCc2cc(O)c(OC)cc21, the T/C (dose: 2.0 mg/kg/injection, schedule: Q01DX009 (ip), vehicle: saline) was 127 % of control, the T/C (dose: 4.0 mg/kg/injection, schedule: Q01DX009 (ip), vehicle: saline + alcohol) was 130 % of control and the T/C [8] was 141 % of control [9 of 10 alive]. The T/C [9] was 130 and 138 % of control [9 of 10 alive], the survivor count [9] was 10 of 10 and the survivor count (dose: 16.0 mg/kg/injection, schedule: Q01DX009 (ip), vehicle: saline + alcohol) was 10 of 10. For the same molecule, the survivor count (dose: 16.0 mg/kg/injection, schedule: Q01DX009 (ip), vehicle: saline) was 6 of 10 and 10 of 10 (2×), the survivor count (dose: 32.0 mg/kg/injection, schedule: Q01DX009 (ip), vehicle: saline) was 3 of 10 and the T/C (dose: 64.0 mg/kg/injection, schedule: Q04DX003 (ip), vehicle: alkali diluted with saline) was 137 % of control. For the same molecule, the survivor count (dose: 128.0 mg/kg/injection, schedule: Q04DX003 (ip), vehicle: alkali diluted with saline) was 3 of 8.

With NC(Cc1ccc(N(CCCl)CCCl)cc1)C(=O)O (stereo unspecified) the T/C (dose: 1.0 mg/kg/injection, schedule: Q01DX009 (ip), vehicle: saline) was 147 % of control, the T/C [8] was 147 % of control and the T/C [9] was 140 % of control. For the same molecule, the survivor count (dose: 16.0 mg/kg/injection, schedule: Q01DX009 (ip), vehicle: water) was 5 of 5.

Cc1ccc(C)c(NC(=O)c2ccccc2C(=O)O)c1 was tested, and the survivor count [6] was 9 of 10.

In the case of Clc1cc(Cl)c(C[N+]23CN4CN(CN(C4)C2)C3)cc1Cl, the survivor count (dose: 400.0 mg/kg/injection, schedule: Q01DX009 (ip), vehicle: saline) is reported as 0 of 10.

With O=C1c2ccc(Br)cc2-c2cc(Br)ccc21 the survivor count (dose: 50.0 mg/kg/injection, schedule: Q01DX009 (ip), vehicle: saline with Tween-80) was 10 of 10, the survivor count [10] was 10 of 10 and the survivor count [3] was 10 of 10. For the same molecule, the survivor count [7] was 10 of 10.

CC(C)CNN(CC(C)C)C(N)=O was tested, and the survivor count [7] was 3 of 10.

For Cc1c2c(ccc3ccccc32)c[n+]2ccccc12, the survivor count (dose: 25.0 mg/kg/injection, schedule: Q01DX009 (ip), vehicle: suspension in saline) was 0 of 10 and the survivor count (dose: 50.0 mg/kg/injection, schedule: Q01DX009 (ip), vehicle: suspension in saline) was 0 of 10.

C1CC[N-]CC1.C1CC[N-]CC1.C1CC[N-]CC1.C1CC[N-]CC1.N#C[S-].N#C[S-].[Ni] was tested, and the survivor count (dose: 20.0 mg/kg/injection, schedule: Q01DX009 (ip), vehicle: saline with Tween-80) was 6 of 6.

Cc1ccc(C)c(NC(=O)Nc2ccccc2C)c1 was tested, and the survivor count [1] was 10 of 10.

For O=C(Nc1cccc(C(F)(F)F)c1)Nc1nccs1, the survivor count [6] was 2 of 10.

For O=C(Nc1ccc(Cl)cc1)Nc1ccccc1F, the survivor count [7] was 10 of 10.

For COc1ccc(C(=O)C(C)Br)c(OCc2ccccc2)c1OC (stereo unspecified), the survivor count [7] was 10 of 10.

In the case of CCCCCCCCCCCCCCCCOc1ccccc1C(C)=O, the survivor count [10] is reported as 10 of 10 and the survivor count [3] is reported as 10 of 10.
